# In the supplement of paper PMC10849652:
# Chains of the proteins cited; added tags and fusions are not shown. Lines headed by an entry give the natural chain unless they say otherwise; changes in a name come on top.
# UniProt Q9BTY2: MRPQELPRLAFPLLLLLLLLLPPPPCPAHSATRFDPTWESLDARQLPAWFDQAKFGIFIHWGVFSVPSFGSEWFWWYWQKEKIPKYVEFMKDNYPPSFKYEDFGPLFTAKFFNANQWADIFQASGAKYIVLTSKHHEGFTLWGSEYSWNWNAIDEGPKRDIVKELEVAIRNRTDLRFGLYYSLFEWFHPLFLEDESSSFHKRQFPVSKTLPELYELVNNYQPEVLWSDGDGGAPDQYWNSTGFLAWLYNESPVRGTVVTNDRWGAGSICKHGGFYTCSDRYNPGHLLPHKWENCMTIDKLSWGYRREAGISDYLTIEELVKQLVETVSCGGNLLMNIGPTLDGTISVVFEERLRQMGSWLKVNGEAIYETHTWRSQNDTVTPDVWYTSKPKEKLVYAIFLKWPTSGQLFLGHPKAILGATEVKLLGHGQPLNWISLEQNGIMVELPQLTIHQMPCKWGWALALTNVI
# UniProt O15117, whole entry, looked up: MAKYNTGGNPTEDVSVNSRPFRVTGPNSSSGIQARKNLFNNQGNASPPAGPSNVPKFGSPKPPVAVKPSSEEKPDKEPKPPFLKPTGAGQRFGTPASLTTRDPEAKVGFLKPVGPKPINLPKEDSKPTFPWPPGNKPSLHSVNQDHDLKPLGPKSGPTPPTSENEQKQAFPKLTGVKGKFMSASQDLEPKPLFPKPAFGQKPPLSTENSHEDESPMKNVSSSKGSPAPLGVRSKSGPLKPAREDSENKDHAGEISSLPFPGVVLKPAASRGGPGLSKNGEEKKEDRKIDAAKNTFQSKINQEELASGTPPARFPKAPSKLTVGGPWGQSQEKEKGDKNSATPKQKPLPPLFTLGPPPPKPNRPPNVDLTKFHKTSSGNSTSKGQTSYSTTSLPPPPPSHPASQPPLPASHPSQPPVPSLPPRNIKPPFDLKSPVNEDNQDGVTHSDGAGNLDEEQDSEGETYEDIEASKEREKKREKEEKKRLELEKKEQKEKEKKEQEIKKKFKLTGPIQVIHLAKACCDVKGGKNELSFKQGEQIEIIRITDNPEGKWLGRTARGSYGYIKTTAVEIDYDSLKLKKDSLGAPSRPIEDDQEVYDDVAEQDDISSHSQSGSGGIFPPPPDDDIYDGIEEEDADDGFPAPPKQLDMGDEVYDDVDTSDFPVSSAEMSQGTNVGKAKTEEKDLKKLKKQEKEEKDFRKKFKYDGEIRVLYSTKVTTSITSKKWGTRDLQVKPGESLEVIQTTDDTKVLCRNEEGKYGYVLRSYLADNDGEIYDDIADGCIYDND
# UniProt O43716: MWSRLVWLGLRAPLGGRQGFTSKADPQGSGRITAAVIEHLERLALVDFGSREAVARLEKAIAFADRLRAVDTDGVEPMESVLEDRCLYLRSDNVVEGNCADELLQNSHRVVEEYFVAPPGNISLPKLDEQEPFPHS
# UniProt P51570: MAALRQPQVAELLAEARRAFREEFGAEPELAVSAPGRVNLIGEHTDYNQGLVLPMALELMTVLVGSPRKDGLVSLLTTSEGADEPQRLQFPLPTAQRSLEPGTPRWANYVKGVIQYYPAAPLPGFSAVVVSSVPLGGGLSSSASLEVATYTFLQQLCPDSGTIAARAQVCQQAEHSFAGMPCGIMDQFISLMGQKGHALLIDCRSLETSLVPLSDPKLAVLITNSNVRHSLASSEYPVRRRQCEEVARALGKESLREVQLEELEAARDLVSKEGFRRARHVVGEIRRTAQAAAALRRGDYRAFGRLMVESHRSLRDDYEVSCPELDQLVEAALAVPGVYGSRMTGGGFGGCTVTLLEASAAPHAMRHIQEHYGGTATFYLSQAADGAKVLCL
# UniProt Q8IVV7: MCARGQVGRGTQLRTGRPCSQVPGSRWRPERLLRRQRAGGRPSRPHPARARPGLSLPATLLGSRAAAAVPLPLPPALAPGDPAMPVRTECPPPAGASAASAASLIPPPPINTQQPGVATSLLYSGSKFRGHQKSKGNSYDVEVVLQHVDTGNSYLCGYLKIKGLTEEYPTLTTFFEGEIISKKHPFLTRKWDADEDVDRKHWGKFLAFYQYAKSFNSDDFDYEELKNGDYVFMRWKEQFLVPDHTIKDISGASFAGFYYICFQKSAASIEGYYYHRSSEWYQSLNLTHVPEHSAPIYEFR
# UniProt Q96I24: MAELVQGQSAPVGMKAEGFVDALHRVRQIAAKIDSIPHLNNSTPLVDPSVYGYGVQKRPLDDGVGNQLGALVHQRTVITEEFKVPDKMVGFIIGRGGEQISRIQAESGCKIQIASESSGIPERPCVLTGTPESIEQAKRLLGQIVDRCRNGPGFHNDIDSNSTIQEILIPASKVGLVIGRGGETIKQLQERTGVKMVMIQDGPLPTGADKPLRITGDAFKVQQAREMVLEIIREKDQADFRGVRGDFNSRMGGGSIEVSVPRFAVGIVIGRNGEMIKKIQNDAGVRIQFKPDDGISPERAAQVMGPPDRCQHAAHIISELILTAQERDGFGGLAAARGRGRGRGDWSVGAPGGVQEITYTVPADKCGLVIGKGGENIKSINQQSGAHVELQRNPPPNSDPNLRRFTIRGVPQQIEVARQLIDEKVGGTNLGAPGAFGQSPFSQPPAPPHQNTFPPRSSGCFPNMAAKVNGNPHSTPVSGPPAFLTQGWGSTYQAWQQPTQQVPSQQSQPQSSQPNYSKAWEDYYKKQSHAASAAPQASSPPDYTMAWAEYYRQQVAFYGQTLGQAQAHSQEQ
# UniProt Q8IWF2: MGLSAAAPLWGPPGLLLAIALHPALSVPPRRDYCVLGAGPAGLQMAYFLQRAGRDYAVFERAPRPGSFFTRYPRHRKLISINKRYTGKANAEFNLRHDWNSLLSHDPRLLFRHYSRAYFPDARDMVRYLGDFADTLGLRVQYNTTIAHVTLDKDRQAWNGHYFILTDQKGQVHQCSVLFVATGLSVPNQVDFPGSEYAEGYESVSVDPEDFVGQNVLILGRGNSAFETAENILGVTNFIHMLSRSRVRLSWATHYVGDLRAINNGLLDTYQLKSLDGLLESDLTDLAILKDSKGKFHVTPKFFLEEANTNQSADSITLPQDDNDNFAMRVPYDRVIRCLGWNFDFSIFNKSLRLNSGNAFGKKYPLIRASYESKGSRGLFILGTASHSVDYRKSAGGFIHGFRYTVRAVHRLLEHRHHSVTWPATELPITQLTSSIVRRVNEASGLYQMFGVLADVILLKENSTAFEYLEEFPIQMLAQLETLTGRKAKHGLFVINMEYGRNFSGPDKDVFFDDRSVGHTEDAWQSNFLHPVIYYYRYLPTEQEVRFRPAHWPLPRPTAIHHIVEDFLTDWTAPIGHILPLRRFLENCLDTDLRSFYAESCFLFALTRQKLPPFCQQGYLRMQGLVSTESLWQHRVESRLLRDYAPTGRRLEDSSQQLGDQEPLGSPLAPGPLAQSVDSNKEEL
# UniProt Q8NCL4: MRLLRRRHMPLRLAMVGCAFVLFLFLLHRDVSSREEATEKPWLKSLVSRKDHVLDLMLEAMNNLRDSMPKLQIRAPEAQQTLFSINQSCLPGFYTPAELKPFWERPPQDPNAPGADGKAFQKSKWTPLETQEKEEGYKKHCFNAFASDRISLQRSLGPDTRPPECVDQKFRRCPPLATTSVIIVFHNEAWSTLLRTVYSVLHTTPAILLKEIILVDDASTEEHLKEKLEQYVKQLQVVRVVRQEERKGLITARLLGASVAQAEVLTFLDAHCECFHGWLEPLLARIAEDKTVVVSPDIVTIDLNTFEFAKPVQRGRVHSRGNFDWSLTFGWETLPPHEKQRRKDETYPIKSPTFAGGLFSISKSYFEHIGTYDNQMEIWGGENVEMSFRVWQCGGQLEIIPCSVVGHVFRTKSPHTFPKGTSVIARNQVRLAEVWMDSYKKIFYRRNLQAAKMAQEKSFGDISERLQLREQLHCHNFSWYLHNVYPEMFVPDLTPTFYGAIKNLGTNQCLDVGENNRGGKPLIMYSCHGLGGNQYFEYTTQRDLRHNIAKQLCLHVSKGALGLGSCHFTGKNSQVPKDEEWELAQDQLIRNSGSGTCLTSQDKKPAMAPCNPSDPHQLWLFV
# UniProt P0CL80: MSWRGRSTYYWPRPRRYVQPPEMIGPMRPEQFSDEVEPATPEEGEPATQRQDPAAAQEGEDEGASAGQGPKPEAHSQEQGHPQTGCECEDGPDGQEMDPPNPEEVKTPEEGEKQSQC
# UniProt Q8N2G8: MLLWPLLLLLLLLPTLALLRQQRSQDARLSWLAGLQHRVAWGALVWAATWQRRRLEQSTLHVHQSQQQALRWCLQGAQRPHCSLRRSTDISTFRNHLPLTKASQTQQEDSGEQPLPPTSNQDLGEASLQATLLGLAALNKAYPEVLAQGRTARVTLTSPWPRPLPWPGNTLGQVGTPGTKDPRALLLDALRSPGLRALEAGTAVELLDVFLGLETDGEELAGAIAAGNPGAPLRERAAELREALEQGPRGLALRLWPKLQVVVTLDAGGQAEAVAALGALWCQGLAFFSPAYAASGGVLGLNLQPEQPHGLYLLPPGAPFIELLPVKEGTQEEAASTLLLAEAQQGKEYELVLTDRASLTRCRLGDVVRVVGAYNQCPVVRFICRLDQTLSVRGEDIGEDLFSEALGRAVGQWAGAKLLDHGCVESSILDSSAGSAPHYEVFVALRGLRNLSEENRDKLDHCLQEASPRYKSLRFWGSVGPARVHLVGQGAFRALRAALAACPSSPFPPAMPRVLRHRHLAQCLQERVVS
# UniProt Q8TEQ6: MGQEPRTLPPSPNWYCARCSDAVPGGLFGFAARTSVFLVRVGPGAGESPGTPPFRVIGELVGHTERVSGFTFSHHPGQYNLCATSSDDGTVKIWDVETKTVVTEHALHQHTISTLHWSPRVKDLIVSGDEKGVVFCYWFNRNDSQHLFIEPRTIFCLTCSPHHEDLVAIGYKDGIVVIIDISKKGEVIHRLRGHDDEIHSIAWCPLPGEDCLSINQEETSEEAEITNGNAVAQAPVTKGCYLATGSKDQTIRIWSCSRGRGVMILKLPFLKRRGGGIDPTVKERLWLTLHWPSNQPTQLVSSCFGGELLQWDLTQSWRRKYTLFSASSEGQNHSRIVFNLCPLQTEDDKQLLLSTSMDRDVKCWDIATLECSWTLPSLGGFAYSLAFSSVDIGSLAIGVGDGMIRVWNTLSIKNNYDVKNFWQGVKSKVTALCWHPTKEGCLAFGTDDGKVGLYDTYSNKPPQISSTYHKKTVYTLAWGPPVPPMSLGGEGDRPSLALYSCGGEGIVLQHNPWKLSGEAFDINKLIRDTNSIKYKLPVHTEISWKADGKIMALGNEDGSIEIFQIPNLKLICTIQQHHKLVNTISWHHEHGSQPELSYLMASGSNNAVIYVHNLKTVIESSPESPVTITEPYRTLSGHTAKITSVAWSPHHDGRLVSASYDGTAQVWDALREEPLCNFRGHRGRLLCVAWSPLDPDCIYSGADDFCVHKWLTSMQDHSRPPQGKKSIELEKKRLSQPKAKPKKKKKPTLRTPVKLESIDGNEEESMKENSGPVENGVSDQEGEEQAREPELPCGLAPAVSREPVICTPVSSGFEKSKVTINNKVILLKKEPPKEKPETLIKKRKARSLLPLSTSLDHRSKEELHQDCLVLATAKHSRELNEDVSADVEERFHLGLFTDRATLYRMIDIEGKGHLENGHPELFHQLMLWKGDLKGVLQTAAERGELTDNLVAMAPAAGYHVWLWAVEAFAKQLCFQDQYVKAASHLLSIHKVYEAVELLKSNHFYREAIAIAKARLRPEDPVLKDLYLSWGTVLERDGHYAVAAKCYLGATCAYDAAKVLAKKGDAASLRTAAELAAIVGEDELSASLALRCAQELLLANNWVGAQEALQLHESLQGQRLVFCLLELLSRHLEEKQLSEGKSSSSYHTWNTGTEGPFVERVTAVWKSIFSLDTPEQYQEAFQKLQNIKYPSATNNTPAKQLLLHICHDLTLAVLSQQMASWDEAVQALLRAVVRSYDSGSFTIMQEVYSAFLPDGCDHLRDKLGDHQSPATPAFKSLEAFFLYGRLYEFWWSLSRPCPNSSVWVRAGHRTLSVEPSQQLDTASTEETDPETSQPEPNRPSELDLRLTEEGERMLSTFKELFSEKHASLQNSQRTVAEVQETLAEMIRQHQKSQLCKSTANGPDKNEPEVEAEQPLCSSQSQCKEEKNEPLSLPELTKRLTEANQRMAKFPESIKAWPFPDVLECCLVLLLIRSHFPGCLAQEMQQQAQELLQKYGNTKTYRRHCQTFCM
# This is one part of the list.
# How the values were obtained:
# Experiment in all cases: log2 fold change, soluble protein after heating vs DMSO (PISA); higher = thermal stabilisation; K562 cells, 10 uM, 30 min; active = over 0.2 and 3.5 SD of the protein, either way, in both replicates (recomputed)
# saracatinib = compound: CN1CCN(CCOc2cc(OC3CCOCC3)c3c(Nc4c(Cl)ccc5c4OCO5)ncnc3c2)CC1 [saracatinib]
# Outline: (§1)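 Thermal stability values are relative to control samples and come from duplicates. They are expressed as log2 fold changes. For measurement, K562 cells (2×10^6 cells/mL) received 10 μM compound for 30 min, and aliquots were heated for 3 min over 48°C-58°C, pooled, and extracted at 4°C in PBS with 0.5% NP-40. Soluble protein, the supernatant after 21,000xg for 90 min, was quantified by TMTpro 16plex LC-MS/MS with equalised channel sums.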
# sotrastaurin = compound: CN1CCN(c2nc(C3=C(c4c[nH]c5ccccc45)C(=O)NC3=O)c3ccccc3n2)CC1 [sotrastaurin]
# Outline: as §1
# Tubastatin A = compound: CN1CCc2c(c3ccccc3n2Cc2ccc(C(=O)NO)cc2)C1 [Tubastatin A]
# Outline: as §1
# [1] = compound: CNC(=O)C1=CC=CC=C1NC2=NC(=NC=C2Cl)NC3=C(C=C(C=C3)N4CCOCC4)OC
# Outline: as §1
# defactinib = compound: CNC(=O)c1ccc(Nc2ncc(C(F)(F)F)c(NCc3nccnc3N(C)S(C)(=O)=O)n2)cc1 [defactinib]
# Outline: as §1
# rucaparib = compound: CNCc1ccc(-c2[nH]c3cc(F)cc4c3c2CCNC4=O)cc1 [rucaparib]
# Outline: as §1
# [2] = compound: CNc1nc(-c2ccc3c(N)n[nH]c3c2)cc(N2C[C@@H](C(=O)NC3CCCCC3)CC[C@H]2C)n1
# Outline: as §1
# encorafenib = compound: COC(=O)N[C@@H](C)CNc1nccc(-c2cn(C(C)C)nc2-c2cc(Cl)cc(NS(C)(=O)=O)c2F)n1 [encorafenib]
# Outline: as §1
# [3] = compound: COC(=O)[C@H](CCSC)NC(=O)C1=C(C=C(C=C1)NC[C@H](CS)N)C2=CC=CC=C2
# Outline: as §1
# alvocidib = compound: CN1CC[C@H](c2c(O)cc(O)c3c(=O)cc(-c4ccccc4Cl)oc23)[C@H](O)C1 [alvocidib]
# Outline: as §1
Target,log2 fold change (saracatinib),log2 fold change (sotrastaurin),log2 fold change (Tubastatin A),log2 fold change [1],log2 fold change (defactinib),log2 fold change (rucaparib),log2 fold change [2],log2 fold change (encorafenib),log2 fold change [3],log2 fold change (alvocidib)
GDPD1 (UniProt Q8N9F7),active: 0.505,inactive: 0.21,inactive: 0.019,inactive: -0.017,inactive: -0.087,inactive: -0.07,inactive: 0.042,inactive: -0.051,inactive: -0.041,–
GALC (UniProt P54803),inactive: 0.033,inactive: 0.047,inactive: -0.028,inactive: -0.003,inactive: 0.017,inactive: -0.091,inactive: -0.015,inactive: 0.024,inactive: -0.005,–
FUCA2 (UniProt Q9BTY2),inactive: -0.013,inactive: -0.021,inactive: -0.026,inactive: 0.028,inactive: -0.045,inactive: -0.139,inactive: 0.003,inactive: 0.012,inactive: 0.038,–
FYB1 isoform 3 (UniProt O15117),inactive: 0.007,inactive: -0.101,inactive: -0.018,inactive: 0,inactive: -0.112,inactive: 0.028,inactive: -0.076,inactive: 0.074,inactive: -0.01,–
GGA2 (UniProt Q9UJY4),inactive: -0.054,inactive: 0.053,inactive: -0.088,inactive: -0.025,inactive: 0.025,inactive: -0.064,inactive: -0.054,inactive: 0.068,inactive: 0.122,–
GABARAPL2 (UniProt P60520),inactive: 0.021,inactive: 0.047,inactive: 0.045,inactive: 0.011,inactive: -0.019,inactive: -0.111,inactive: -0.013,inactive: -0.02,inactive: -0.009,–
GCDH (UniProt Q92947),inactive: 0.035,inactive: 0.07,inactive: 0.004,inactive: -0.054,inactive: -0.012,inactive: 0.045,inactive: 0.009,inactive: -0.047,inactive: 0.008,–
GALNT10 (UniProt Q86SR1),inactive: 0.052,inactive: -0.065,–,–,–,–,inactive: 0.062,–,–,inactive: -0.001
GATC (UniProt O43716),inactive: 0.05,–,inactive: -0.044,–,inactive: -0.225,inactive: -0.279,inactive: 0.004,inactive: 0.003,inactive: -0.071,inactive: -0.003
GDPGP1 (UniProt Q6ZNW5),inactive: -0.132,–,inactive: -0.023,inactive: -0.086,–,–,inactive: -0.019,–,–,inactive: -0.077
GAB2 (UniProt Q9UQC2),inactive: -0.164,inactive: 0.029,inactive: -0.024,inactive: -0.575,inactive: -0.194,inactive: 0.162,inactive: -0.137,inactive: -0.023,inactive: 0.116,–
FUT1 (UniProt P19526),–,inactive: 0.282,–,–,–,–,–,–,–,–
GALK1 isoform 2 (UniProt P51570),inactive: 0.117,inactive: -0.096,inactive: -0.011,inactive: -0.049,inactive: -0.032,inactive: -0.014,inactive: 0.055,inactive: 0.007,inactive: -0.006,–
FNTB (UniProt P49356),inactive: 0.046,inactive: 0.346,inactive: 0.017,inactive: -0.036,inactive: 0.095,inactive: 0.02,inactive: -0.007,inactive: -0.016,active: 0.974,–
GEMIN2 (UniProt O14893),inactive: 0.001,inactive: 0.067,–,–,inactive: -0.041,inactive: 0.136,inactive: 0.013,inactive: 0.151,inactive: 0.072,–
FUNDC1 (UniProt Q8IVP5),–,inactive: 0.049,–,–,–,–,–,–,–,–

Target,log2 fold change (saracatinib),log2 fold change (sotrastaurin),log2 fold change (Tubastatin A),log2 fold change [1],log2 fold change (defactinib),log2 fold change (rucaparib),log2 fold change [2],log2 fold change (encorafenib),log2 fold change [3],log2 fold change (alvocidib)
GABPB1 isoform 3 (UniProt Q06547),inactive: -0.086,–,inactive: 0.034,–,inactive: -0.316,–,inactive: 0.114,–,inactive: -0.001,inactive: -0.414
GATA1 (UniProt P15976),inactive: 0.097,inactive: -0.042,inactive: -0.049,inactive: 0.104,inactive: 0.088,inactive: 0.086,inactive: -0.014,inactive: 0.054,inactive: 0,–
GID4 (UniProt Q8IVV7),inactive: 0.04,inactive: -0.091,inactive: 0.015,inactive: -0.038,inactive: 0.032,inactive: 0.032,inactive: -0.079,inactive: -0.072,inactive: 0.139,–
FOXJ3 (UniProt Q9UPW0),inactive: 0.159,–,inactive: -0.057,inactive: -0.029,inactive: -0.038,inactive: -0.176,inactive: -0.35,inactive: 0.007,inactive: 0.379,inactive: -0.151
FUBP3 (UniProt Q96I24),inactive: 0.012,inactive: 0.05,inactive: -0.092,inactive: -0.039,inactive: 0.184,inactive: 0.167,inactive: -0.049,inactive: -0.003,inactive: -0.032,–
GDI1 (UniProt P31150),inactive: 0.017,inactive: 0.012,inactive: -0.025,inactive: 0.012,inactive: -0.046,inactive: -0.042,inactive: -0.015,inactive: 0.006,inactive: 0.009,–
FOXRED2 (UniProt Q8IWF2),inactive: -0.125,–,inactive: 0.098,inactive: 0.11,inactive: 0.041,inactive: 0.113,inactive: 0.017,inactive: 0.229,inactive: 0.02,inactive: -0.075
GALNT11 (UniProt Q8NCW6),inactive: -0.025,inactive: -0.024,inactive: 0.028,inactive: 0.033,inactive: -0.187,inactive: -0.047,inactive: 0.01,inactive: -0.064,inactive: -0.055,–
GALNT6 (UniProt Q8NCL4),inactive: 0.249,inactive: 0.055,inactive: -0.005,inactive: 0.006,–,–,inactive: -0.018,–,–,–
GAGE12F (UniProt P0CL80),inactive: 0.007,inactive: 0.053,inactive: 0.009,inactive: -0.081,inactive: 0.095,inactive: 0.033,inactive: -0.051,inactive: -0.031,inactive: -0.02,–
FUT8 (UniProt Q9BYC5),inactive: -0.095,inactive: -0.049,inactive: 0.02,inactive: 0.023,inactive: 0.049,inactive: -0.037,inactive: 0.017,inactive: 0.018,active: 0.506,–
GHDC (UniProt Q8N2G8),inactive: 0.003,inactive: 0.085,inactive: -0.032,inactive: 0.014,inactive: -0.033,inactive: 0.006,inactive: -0.007,inactive: 0.001,inactive: 0.02,–
GATB (UniProt O75879),inactive: 0.007,inactive: -0.177,inactive: 0.031,inactive: -0.092,inactive: -0.257,–,inactive: -0.042,–,inactive: -0.308,–
GEMIN5 (UniProt Q8TEQ6),inactive: -0.014,inactive: -0.035,inactive: -0.053,inactive: -0.02,active: -0.216,inactive: 0.026,inactive: 0.025,inactive: 0.061,inactive: -0.019,–
GDAP2 (UniProt Q9NXN4),inactive: -0.117,inactive: 0.121,–,inactive: 0.104,–,inactive: 0.061,inactive: -0.111,inactive: 0.253,–,–

# A stretch taken from the entries so far:
Target,log2 fold change (saracatinib),log2 fold change (sotrastaurin),log2 fold change (Tubastatin A),log2 fold change [1],log2 fold change (defactinib),log2 fold change (rucaparib),log2 fold change [2],log2 fold change (encorafenib),log2 fold change [3],log2 fold change (alvocidib)
GID4 (UniProt Q8IVV7),inactive: 0.04,inactive: -0.091,inactive: 0.015,inactive: -0.038,inactive: 0.032,inactive: 0.032,inactive: -0.079,inactive: -0.072,inactive: 0.139,–
FOXJ3 (UniProt Q9UPW0),inactive: 0.159,–,inactive: -0.057,inactive: -0.029,inactive: -0.038,inactive: -0.176,inactive: -0.35,inactive: 0.007,inactive: 0.379,inactive: -0.151
FUBP3 (UniProt Q96I24),inactive: 0.012,inactive: 0.05,inactive: -0.092,inactive: -0.039,inactive: 0.184,inactive: 0.167,inactive: -0.049,inactive: -0.003,inactive: -0.032,–
GDI1 (UniProt P31150),inactive: 0.017,inactive: 0.012,inactive: -0.025,inactive: 0.012,inactive: -0.046,inactive: -0.042,inactive: -0.015,inactive: 0.006,inactive: 0.009,–
FOXRED2 (UniProt Q8IWF2),inactive: -0.125,–,inactive: 0.098,inactive: 0.11,inactive: 0.041,inactive: 0.113,inactive: 0.017,inactive: 0.229,inactive: 0.02,inactive: -0.075
GALNT11 (UniProt Q8NCW6),inactive: -0.025,inactive: -0.024,inactive: 0.028,inactive: 0.033,inactive: -0.187,inactive: -0.047,inactive: 0.01,inactive: -0.064,inactive: -0.055,–
GALNT6 (UniProt Q8NCL4),inactive: 0.249,inactive: 0.055,inactive: -0.005,inactive: 0.006,–,–,inactive: -0.018,–,–,–
GAGE12F (UniProt P0CL80),inactive: 0.007,inactive: 0.053,inactive: 0.009,inactive: -0.081,inactive: 0.095,inactive: 0.033,inactive: -0.051,inactive: -0.031,inactive: -0.02,–
